## Percent effect of library compounds

From ChEMBL document CHEMBL3988442, “University of Dundee, Small-Polar-MMV Screening Library” (2021).

A: 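Phenotypic screen: M. tuberculosis growth, cholesterol and DPPC medium, 4 days; the read-out is not stated. Tested at 50 µM. The record gives no direction; compounds that gave an IC50 in retests scored well above the rest, so higher reads as more growth inhibition. Of about 69,000 compounds tested this way, about 370 (0.54%) reached 50% or more in at least one test.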
B: 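Phenotypic screen: M. tuberculosis growth, glucose 7H9 medium, 3 days; the read-out is not stated. Concentration: 50 µM. Higher reads as more growth inhibition (inferred: compounds with an IC50 in retests scored well above the rest). Of about 69,000 compounds tested this way, about 760 (1.1%) reached 50% or more in at least one test.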

Values are the deposited “Percent Effect”, in %.
The record does not define 0% and 100%; most values in the screen are far below 50% and negative numbers occur (in some assays of this library far below -100).
Compounds were drawn at random from those tested, without regard to their results.
Two or more numbers in one place are separate tests of the same structure; such repeats can differ widely.

Result for CCn1nc(C)cc1C(=O)Nc1cc(F)ccc1OCC1CCCO1 (stereo not shown) was A: 1.441%; B: 14.15%.
Result for Cc1nc(C)n(CC2CCCN(CC3CCCCC3)C2)n1 (stereo not shown) was A: 0.7027%; B: 7.177%.
Result for Cc1cccc(CN2Cc3ccnn3CC(COCC3CC3)C2)n1.O=C(O)C(F)(F)F (stereo not shown) was A: -2.586%; B: -4.27%.
Result for Cc1ccc(C(=O)N2CCc3ncnc(-c4cnn(C)c4)c3CC2)cn1.O=C(O)C(F)(F)F was A: 7.402%; B: -16.8%.
Result for Cc1cc(-c2cnc(NC3CC3)nc2-c2ccoc2)on1 was A: 18.19%; B: 18.36%.
Result for COc1cccc(S(=O)(=O)NC(=O)COC2CCCCC2)c1 was A: -15.57%; B: 2.499%.
Result for Cc1nn(C)c2cnn(CC(=O)NCc3ccccc3F)c12 was A: -13.25%; B: -21.57%.
Result for O=C(O)C(F)(F)F.[H][C@@]12OCCN(Cc3ccc(F)cc3)[C@@]1([H])CC[C@H]2OCC1CC1 was A: 9.75%; B: 20.56%.
Result for CN(CCCc1nccn1C)C(=O)C1CCN(C(=O)C2CCCC2)CC1 was A: 6.536%; B: 6.672%.
Result for CO[C@@H]1CCN(c2nnc(C)s2)C[C@@H]1Cc1cccc(C)c1.O=C(O)C(F)(F)F was A: 38.09%; B: 51.3% & 34.61%.
Result for Cc1ccc2cc(C(=O)N3CCC(Nc4cccnn4)CC3)[nH]c2c1 was A: -18.93%; B: 15.71%.
Result for COCCNc1ncc(-c2onc(C)c2C)c(-c2ccco2)n1 was A: 18.12% & 11.85%; B: -6.436%.
Result for CC1(C)CNC(=O)c2nc(CCN3CCC(C(N)=O)CC3)[nH]c2C1 was A: -2.135%; B: -6.152%.
Result for Cc1noc(NCc2ccc(F)cc2)n1 was A: 8.569%; B: 7.056%.
Result for Cn1cccc1C(=O)NS(=O)(=O)c1cnn(-c2ccccc2F)c1 was A: -28.87%; B: -26.13% & -14.03%.
Result for COc1cc(NC(=O)N2CCCC2c2nncn2C)ccc1Br (stereo not shown) was A: 22.56%; B: 14.29% & 12.6%.
Result for Cn1ccnc(Nc2ccc3c(c2)CCN3C(=O)c2ccoc2)c1=O was A: 8.669%; B: -15.11%.
Result for COCc1noc(C2(c3ccc(Br)cc3)CCOCC2)n1 was A: 10.28%; B: 2.194%.
Result for CN1CCN(C(=O)c2ncn3c2CNS(=O)(=O)c2ccccc2-3)CC1 was A: 12.74%; B: -11.07% & -1.386%.
Result for Cc1nc(C(C)(C)C)sc1C(=O)NCCn1cccn1 was A: -4.953%; B: -2.316%.
Result for O=C(O)C(F)(F)F.O=C(O)C(F)(F)F.[H][C@@]12CO[C@@H](CN(C)Cc3cccnc3)[C@]1([H])CCN(C(=O)C1CC1)C2 was A: -1.969% & -6.488%; B: 0.1955% & 4.109%.
Result for O=C1CCC2(CCCN(C(=O)c3ccc[nH]3)C2)CN1Cc1cccnc1 (stereo not shown) was A: -3.512% & -7.89%; B: -2.758%.
Result for O=c1[nH]ncc(NCCOc2cccc(Br)c2)c1Cl was A: 28.58%; B: 16.78%.

3 of the entries, repeated:

| Compound | A | B |
|---|---|---|
| `CN1CCN(C(=O)c2ncn3c2CNS(=O)(=O)c2ccccc2-3)CC1` | 12.74 | -11.07 & -1.386 |
| `CC1(C)CNC(=O)c2nc(CCN3CCC(C(N)=O)CC3)[nH]c2C1` | -2.135 | -6.152 |
| `Cc1ccc(C(=O)N2CCc3ncnc(-c4cnn(C)c4)c3CC2)cn1.O=C(O)C(F)(F)F` | 7.402 | -16.8 |